Here are results for 10 molecules from the supplement of paper PMC4604168 (melanoma cell lines).

Molecules are shown by their SMILES. The list shows a part of the results. Many values rest on one well or one pass, so single values are uncertain.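 Cells were imaged in 1,536-well plates, and nuclei stained with an antibody against cleaved PARP were counted against all DNA-stained nuclei to give the apoptosis fraction. Screening doses were chosen to leave most cells alive, and resting and induced cleaved-PARP levels differ strongly between cell lines.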

The subject of this assay is WM115. Nature of the assay: cleaved PARP positive nuclei fraction relative to DMSO control; melanoma cells; higher = more apoptosis. Conditions: library dose: low library concentration; 72 h.
With `C=CCn1c(=O)c2cnc(Nc3ccc(N4CCN(C)CC4)cc3)nc2n1-c1cccc(C(C)(C)O)n1` + CC(C)(C)c1cnc(CSc2cnc(NC(=O)C3CCNCC3)s2)o1 [SNS-032] (first compound 0.02 µM, partner dose 0.01 µM), the “cleaved PARP positive nuclei fraction” value is 112%. `Cc1nc(Nc2ncc(C(=O)Nc3c(C)cccc3Cl)s2)cc(N2CCN(CCO)CC2)n1` [dasatanib] + CC(C)CCN1c2nc(Nc3cc(F)c(O)c(F)c3)ncc2N(C)C(=O)C1C [BID1870] (first compound 0.004 µM, partner dose 0.2 µM): the “cleaved PARP positive nuclei fraction” value stood at 217%. As for `CC1(C)NC(=O)N(c2ccc([N+](=O)[O-])c(C(F)(F)F)c2)C1=O` [nilutamide] + CN(C)S(=O)(=O)c1ccc2c(c1)/C(=C/c1cc3c([nH]1)CCCC3)C(=O)N2 [SU6656] (first compound 1 µM, partner dose 0.4 µM), the “cleaved PARP positive nuclei fraction” value was 100%. As for `CC(=O)c1c(C)c2cnc(Nc3ccc(N4CCNCC4)cn3)nc2n(C2CCCC2)c1=O` [palbociclib] + O=C(O)c1ccc(-c2c[nH]c3ncc(-c4ccccc4)cc23)cc1C1CCCC1 [GSK650394] (first compound 0.04 µM, partner dose 0.16 µM), the “cleaved PARP positive nuclei fraction” value came out at 32.3%. Turning to `OCCn1cc(-c2cnc3nnn(Cc4ccc5ncccc5c4)c3n2)cn1` + Oc1cc(-c2nc(-c3ccccc3)[nH]c2-c2ccncc2)ccc1Cl [L779450] (first compound 1 µM, partner dose 0.2 µM), the “cleaved PARP positive nuclei fraction” value came to 46.9%.

In the case of `COc1cc(Nc2ncc(F)c(Nc3ccc4c(n3)NC(=O)C(C)(C)O4)n2)cc(OC)c1OC` [Tamatinib] + CN(NC(=O)CC(=O)NN(C)C(=S)c1ccccc1)C(=S)c1ccccc1 [STA4783] (first compound 0.4 µM, partner dose 0.006 µM), the “cleaved PARP positive nuclei fraction” value is 185%. For the molecule `Cc1ccc(NC(=O)c2cccc(N(C)C)c2)cc1NC(=O)c1ccc(O)cc1` + CC(C)(C)c1cnc(CSc2cnc(NC(=O)C3CCNCC3)s2)o1 [SNS-032] (first compound 2 µM, partner dose 0.01 µM), the “cleaved PARP positive nuclei fraction” value was 54.5%. `C[C@]1(c2nc3c(C(N)=O)cccc3[nH]2)CCCN1` [Veliparib] + Cc1ccc(NC(=O)c2cccc(N(C)C)c2)cc1NC(=O)c1ccc(O)cc1 [ZM336372] (first compound 1.4 µM, partner dose 2 µM): the “cleaved PARP positive nuclei fraction” value worked out at 246%. With `O=C(CCCCCCC(=O)Nc1ccccc1)NO` [vorinostat] + CN(C)S(=O)(=O)c1ccc2c(c1)/C(=C/c1cc3c([nH]1)CCCC3)C(=O)N2 [SU6656] (first compound 0.08 µM, partner dose 0.4 µM) the figure was 107%; with `Cn1nnc2c(C(N)=O)ncn2c1=O` [temozolomide] + Oc1nc(-c2ccc(C(F)(F)F)cc2)nc2c1CSCC2 [XAV939] (first compound 2 µM, partner dose 2 µM), 150%.
